# Experimental data as given in the supplement of paper PMC8728848.
# The other results are listed elsewhere or left out.
# B1: AT1G80310(18) (Arabidopsis thaliana), Q0WP36 (protein)
# chain: METTTTPLLPGDRSRCGWLRRRLRLKNPLSSELSGAVGDLGTFIPIVLTLTLVSNLDLSTTLIFTGFYNIATGLLFDIPMPVQPMKSIAAVAVSESPHLTPSQIAAAGASTAATLLLLGATGAMSFLYNIIPLPVVRGVQLSQGLQFAFTAIKYVRFNYDTATLKPSSSPRIWLGLDGLILALAALLFIILSTGSGNDREAEDGDLAETSSNESQSRRRRLRLLSSIPSALIVFALGLVLCFIRDPSIFKDLKFGPSKFHILRISWDDWKIGFLRAAIPQIPLSVLNSVIAVCKLSNDLFDKELSATTVSISVGVMNLIGCWFGAMPVCHGAGGLAGQYRFGARSGLSVIFLGIGKLIVGLVFGNSFVRILSQFPIGILGVLLLFAGIELAMASKDMNSKEDSFIMLVCAAVSMTGSSAALGFGCGVVLYLLLKLRTLDCSSVTLFSRSSDESQVDSEAAPRDV
# Key:
# Test in all cases: glycan array binding signal (z-score within array); higher = stronger binding
# Conditions in all cases: glycan notation: IUPAC condensed, linker removed
# Gal3S4S(b1-4)GlcNAc = biological target: Gal3S4S(b1-4)GlcNAc
# Outline: (§1)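 Glycan array data were curated from 3228 arrays in the Consortium for Functional Glycomics database and kept only where the protein sequence was available. Glycan names were converted to IUPAC-condensed notation, and columns mapping to the same glycan were averaged. The binding signal is a within-array Z-score, averaged across arrays of the same protein sequence at different concentrations or buffers and across linkers. Negative Z-scores can be read as non-binding.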
# Gal3S6S(b1-4)GlcNAc = biological target: Gal3S6S(b1-4)GlcNAc
# Outline: as §1
# Gal3S6S(b1-4)GlcNAc6S = biological target: Gal3S6S(b1-4)GlcNAc6S
# Outline: as §1
# Gal4S(b1-4)GlcNAc = biological target: Gal4S(b1-4)GlcNAc
# Outline: as §1
# Gal4S6S(b1-4)GlcNAc = biological target: Gal4S6S(b1-4)GlcNAc
# Outline: as §1
# Gal6P(b1-4)GlcNAc = biological target: Gal6P(b1-4)GlcNAc
# Outline: as §1
# Gal6S(b1-3)GlcNAc = biological target: Gal6S(b1-3)GlcNAc
# Outline: as §1
# Gal6S(b1-3)GlcNAc6S = biological target: Gal6S(b1-3)GlcNAc6S
# Outline: as §1
# Gal6S(b1-4)Glc = biological target: Gal6S(b1-4)Glc
# Outline: as §1
# Gal6S(b1-4)Glc6S = biological target: Gal6S(b1-4)Glc6S
# Outline: as §1
# Gal6S(b1-4)GlcNAc = biological target: Gal6S(b1-4)GlcNAc
# Outline: as §1
# Gal6S(b1-4)GlcNAc6S = biological target: Gal6S(b1-4)GlcNAc6S
# Outline: as §1
# GalNAc(a1-3)Gal = biological target: GalNAc(a1-3)Gal
# Outline: as §1
# GalNAc(a1-3)GalNAc = biological target: GalNAc(a1-3)GalNAc
# Outline: as §1
# [1] = biological target: GalNAc(a1-3)GalNAc(b1-3)Gal(a1-4)Gal(b1-4)Glc
# Outline: as §1
# [2] = biological target: GalNAc(a1-3)GalNAc(b1-3)Gal(a1-4)Gal(b1-4)GlcNAc
# Outline: as §1
# GalNAc(b1-3)Gal = biological target: GalNAc(b1-3)Gal
# Outline: as §1
# [3] = biological target: GalNAc(b1-3)Gal(a1-4)Gal(b1-4)GlcNAc
# Outline: as §1
# [4] = biological target: GalNAc(b1-3)Gal(a1-4)Gal(b1-4)GlcNAc(b1-3)Gal(b1-4)Glc
# Outline: as §1
# [5] = biological target: GalNAc(b1-3)Gal(a1-6)Gal(b1-4)Glc
# Outline: as §1
# GalNAc(b1-3)GalNAc = biological target: GalNAc(b1-3)GalNAc
# Outline: as §1
# GalNAc(b1-3)GlcNAc = biological target: GalNAc(b1-3)GlcNAc
# Outline: as §1
# GalNAc(b1-4)Gal(b1-4)Glc = biological target: GalNAc(b1-4)Gal(b1-4)Glc
# Outline: as §1
# GalNAc(b1-4)GlcNAc = biological target: GalNAc(b1-4)GlcNAc
# Outline: as §1
# [6] = biological target: GalNAc(b1-4)GlcNAc(b1-2)Man
# Outline: as §1
# [7] = biological target: GalNAc(b1-4)GlcNAc(b1-2)Man(a1-3)[GalNAc(b1-4)GlcNAc(b1-2)Man(a1-6)]Man(b1-4)GlcNAc(b1-4)GlcNAc
# Outline: as §1
# [8] = biological target: GalNAc(b1-4)GlcNAc(b1-3)GalNAc(b1-4)GlcNAc
# Outline: as §1
# GalNAc(b1-4)GlcNAc6S = biological target: GalNAc(b1-4)GlcNAc6S
# Outline: as §1
# GalNAc(b1-6)GalNAc = biological target: GalNAc(b1-6)GalNAc
# Outline: as §1
# GalNAc3S(b1-4)GlcNAc = biological target: GalNAc3S(b1-4)GlcNAc
# Outline: as §1
# GalNAc3S(b1-4)GlcNAc3S = biological target: GalNAc3S(b1-4)GlcNAc3S
# Outline: as §1
# [9] = biological target: GalNAc3S(b1-4)[Fuc(a1-3)]GlcNAc
# Outline: as §1
# GalNAc4S6S(b1-4)GlcNAc = biological target: GalNAc4S6S(b1-4)GlcNAc
# Outline: as §1
# GalNAc6S(b1-4)GlcNAc = biological target: GalNAc6S(b1-4)GlcNAc
# Outline: as §1
# Glc(a1-4)Glc = biological target: Glc(a1-4)Glc
# Outline: as §1
# [10] = biological target: Glc(a1-4)Glc(a1-4)Glc(a1-4)Glc
# Outline: as §1
# Glc(a1-6)Glc(a1-6)Glc = biological target: Glc(a1-6)Glc(a1-6)Glc
# Outline: as §1
# [11] = biological target: Glc(a1-6)Glc(a1-6)Glc(a1-6)Glc
# Outline: as §1
binder,measurement,setting,value
B1,glycan array binding signal (z-score),Gal3S4S(b1-4)GlcNAc,1.21
same,glycan array binding signal (z-score),Gal3S6S(b1-4)GlcNAc,-0.318
same,glycan array binding signal (z-score),Gal3S6S(b1-4)GlcNAc6S,0.953
same,glycan array binding signal (z-score),Gal4S(b1-4)GlcNAc,0.699
same,glycan array binding signal (z-score),Gal4S6S(b1-4)GlcNAc,-0.208
same,glycan array binding signal (z-score),Gal6P(b1-4)GlcNAc,0.119
same,glycan array binding signal (z-score),Gal6S(b1-3)GlcNAc,-0.548
same,glycan array binding signal (z-score),Gal6S(b1-3)GlcNAc6S,-0.805
same,glycan array binding signal (z-score),Gal6S(b1-4)Glc,0.071
same,glycan array binding signal (z-score),Gal6S(b1-4)Glc6S,-0.35
same,glycan array binding signal (z-score),Gal6S(b1-4)GlcNAc,1.14
same,glycan array binding signal (z-score),Gal6S(b1-4)GlcNAc6S,-1.07
same,glycan array binding signal (z-score),GalNAc(a1-3)Gal,1.2
same,glycan array binding signal (z-score),GalNAc(a1-3)GalNAc,-0.595
same,glycan array binding signal (z-score),[1],-0.103
same,glycan array binding signal (z-score),[2],1.26
same,glycan array binding signal (z-score),GalNAc(b1-3)Gal,-0.065
same,glycan array binding signal (z-score),[3],-0.42
same,glycan array binding signal (z-score),[4],-0.794
same,glycan array binding signal (z-score),[5],-0.826
same,glycan array binding signal (z-score),GalNAc(b1-3)GalNAc,1.02
same,glycan array binding signal (z-score),GalNAc(b1-3)GlcNAc,0.16
same,glycan array binding signal (z-score),GalNAc(b1-4)Gal(b1-4)Glc,0.883
same,glycan array binding signal (z-score),GalNAc(b1-4)GlcNAc,3.09
same,glycan array binding signal (z-score),[6],-0.717
same,glycan array binding signal (z-score),[7],-0.392
same,glycan array binding signal (z-score),[8],-0.307
same,glycan array binding signal (z-score),GalNAc(b1-4)GlcNAc6S,-0.579
same,glycan array binding signal (z-score),GalNAc(b1-6)GalNAc,-0.556
same,glycan array binding signal (z-score),GalNAc3S(b1-4)GlcNAc,-0.831
same,glycan array binding signal (z-score),GalNAc3S(b1-4)GlcNAc3S,-0.55
same,glycan array binding signal (z-score),[9],-0.652
same,glycan array binding signal (z-score),GalNAc4S6S(b1-4)GlcNAc,3.56
same,glycan array binding signal (z-score),GalNAc6S(b1-4)GlcNAc,2.89
same,glycan array binding signal (z-score),Glc(a1-4)Glc,-0.658
same,glycan array binding signal (z-score),[10],-0.815
same,glycan array binding signal (z-score),Glc(a1-6)Glc(a1-6)Glc,1.9
same,glycan array binding signal (z-score),[11],-0.389

# 2 records picked at random from those above:
binder,measurement,setting,value
B1,glycan array binding signal (z-score),Glc(a1-4)Glc,-0.658
same,glycan array binding signal (z-score),GalNAc(b1-4)Gal(b1-4)Glc,0.883
